Test results as given in patent publication US20250282849A1.
No constants are given. Whether binding was seen depends on the method and setting. Some entries that bind do so weakly or less than the wild type. Tags and fused reporters may be left off the sequences shown.

Target: T1, Human GPR116 with a C terminal FLAG tag, stably overexpressed in HEK293A or HEK293T cells (human) (UniProt Q8IZF2)
T1 sequence (looked up): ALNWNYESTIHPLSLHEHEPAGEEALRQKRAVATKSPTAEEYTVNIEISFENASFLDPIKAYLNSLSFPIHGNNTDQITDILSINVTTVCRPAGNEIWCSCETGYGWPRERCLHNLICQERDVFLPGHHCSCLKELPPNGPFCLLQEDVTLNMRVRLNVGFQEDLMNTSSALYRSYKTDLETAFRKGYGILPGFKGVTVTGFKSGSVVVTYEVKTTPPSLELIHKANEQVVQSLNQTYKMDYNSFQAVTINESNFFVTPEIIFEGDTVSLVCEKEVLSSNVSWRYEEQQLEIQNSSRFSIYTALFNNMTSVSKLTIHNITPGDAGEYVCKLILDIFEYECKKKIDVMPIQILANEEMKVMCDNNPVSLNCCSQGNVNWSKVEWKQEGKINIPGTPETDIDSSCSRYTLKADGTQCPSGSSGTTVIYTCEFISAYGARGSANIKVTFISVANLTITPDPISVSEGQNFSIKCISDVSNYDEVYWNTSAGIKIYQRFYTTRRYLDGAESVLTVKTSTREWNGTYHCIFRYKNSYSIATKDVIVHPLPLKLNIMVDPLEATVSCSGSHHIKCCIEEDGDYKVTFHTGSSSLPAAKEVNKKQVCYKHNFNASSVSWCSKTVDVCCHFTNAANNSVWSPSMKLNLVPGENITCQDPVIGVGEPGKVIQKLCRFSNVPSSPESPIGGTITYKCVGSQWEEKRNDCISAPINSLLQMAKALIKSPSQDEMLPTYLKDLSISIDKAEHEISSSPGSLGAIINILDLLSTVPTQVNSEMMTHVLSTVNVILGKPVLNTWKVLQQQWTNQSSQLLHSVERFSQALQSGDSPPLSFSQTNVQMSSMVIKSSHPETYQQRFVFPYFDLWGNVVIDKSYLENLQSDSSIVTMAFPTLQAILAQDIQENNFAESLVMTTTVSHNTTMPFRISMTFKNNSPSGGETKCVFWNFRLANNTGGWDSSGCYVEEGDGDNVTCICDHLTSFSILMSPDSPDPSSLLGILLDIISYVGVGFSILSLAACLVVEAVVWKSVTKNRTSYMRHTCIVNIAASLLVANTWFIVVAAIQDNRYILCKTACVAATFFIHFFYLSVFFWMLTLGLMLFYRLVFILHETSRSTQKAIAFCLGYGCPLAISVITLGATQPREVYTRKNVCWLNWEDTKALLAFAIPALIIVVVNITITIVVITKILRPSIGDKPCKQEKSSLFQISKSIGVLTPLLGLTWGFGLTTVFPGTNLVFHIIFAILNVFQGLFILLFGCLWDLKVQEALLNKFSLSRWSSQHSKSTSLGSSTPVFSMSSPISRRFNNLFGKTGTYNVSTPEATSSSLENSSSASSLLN
Assay: flow cytometry competition on HEK293T GPR116 OE cells; excess untagged sFNDC4 against FcsFNDC4

B1: Untagged FNDC4 (aa40-160, UniProtKB Q3TR08 Mouse FNDC4), non Fc fused (ligand, UniProt Q3TR08 40-160, looked up)
chain: ADRPPSPVNVTVTHLRANSATVSWDVPEGNIVIGYSISQQRQNGPGQRVIREVNTTTRACALWGLAEDSDYTVQVRSIGLRGESPPGPRVHFRTLKGSDRLPSNSSSPGDITVEGLDGERP
  binding: binds
